Assay results from article PMC3388046.

Protein sequences, listed by entry. Tags and fused reporters are not part of them. Lines headed by an entry give the natural chain unless they say otherwise; changes in a name come on top.
UniProt P01042: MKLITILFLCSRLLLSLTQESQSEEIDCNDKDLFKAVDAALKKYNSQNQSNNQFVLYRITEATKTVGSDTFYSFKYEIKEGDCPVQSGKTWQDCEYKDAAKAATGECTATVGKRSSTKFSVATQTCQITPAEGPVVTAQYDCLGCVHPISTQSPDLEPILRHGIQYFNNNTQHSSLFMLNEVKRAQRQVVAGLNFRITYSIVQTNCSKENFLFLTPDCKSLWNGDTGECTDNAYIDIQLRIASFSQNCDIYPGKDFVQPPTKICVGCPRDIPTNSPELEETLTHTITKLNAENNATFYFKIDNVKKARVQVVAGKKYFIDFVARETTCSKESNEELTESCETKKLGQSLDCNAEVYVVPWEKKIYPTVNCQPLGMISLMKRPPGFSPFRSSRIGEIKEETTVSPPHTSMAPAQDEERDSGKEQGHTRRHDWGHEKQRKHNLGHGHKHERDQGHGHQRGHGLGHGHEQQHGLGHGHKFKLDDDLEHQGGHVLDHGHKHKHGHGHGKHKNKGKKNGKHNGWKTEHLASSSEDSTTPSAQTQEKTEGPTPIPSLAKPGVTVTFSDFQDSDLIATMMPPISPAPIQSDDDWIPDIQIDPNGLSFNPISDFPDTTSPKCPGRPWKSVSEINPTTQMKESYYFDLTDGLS
UniProt P02792: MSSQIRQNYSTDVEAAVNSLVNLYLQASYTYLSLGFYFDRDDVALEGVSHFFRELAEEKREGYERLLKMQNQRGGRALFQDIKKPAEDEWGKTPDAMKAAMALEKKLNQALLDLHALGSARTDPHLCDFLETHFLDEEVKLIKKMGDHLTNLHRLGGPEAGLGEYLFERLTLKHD

Biological target: GST-tagged domain 5 of HKa (human) (UniProt P01042)
Test: pull-down; 10 µg GST-D5 or GST incubated with 20 µg biotinylated HFt or LFt on Protein G Sepharose at 4°C overnight, anti-GST antibody added for 2 hr at 4°C; blot with streptavidin-HRP and anti-GST; both purified

recombinant human ferritin H homopolymer (from UniProt P02794 1-183)
binding: binds

recombinant human ferritin L homopolymer (from UniProt P02792 1-175)
binding: binds

Results are given in words; binding and its absence hold for the method and conditions named. Binding calls can cover weak binding; strength is not graded here.
